These are yes or no findings as the source states them, for the method shown. For some of these results: In cells and extracts the contact can be indirect. Some entries that bind do so weakly or less than the wild type. Sequences can lack the tags named with a protein.

Assay [1] addresses T1, BD-OsWRKY76 (rice (Oryza sativa)) (UniProt Q6EPZ2).
T1 sequence: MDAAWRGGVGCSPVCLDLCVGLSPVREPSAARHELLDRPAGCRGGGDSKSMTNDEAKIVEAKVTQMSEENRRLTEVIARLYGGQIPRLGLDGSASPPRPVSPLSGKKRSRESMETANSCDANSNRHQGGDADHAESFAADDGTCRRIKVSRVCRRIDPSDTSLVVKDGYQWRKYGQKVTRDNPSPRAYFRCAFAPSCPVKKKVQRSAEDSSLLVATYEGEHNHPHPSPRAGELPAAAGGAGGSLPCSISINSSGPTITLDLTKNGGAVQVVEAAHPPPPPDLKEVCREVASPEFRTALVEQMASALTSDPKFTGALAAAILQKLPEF
In words: two-hybrid; yeast strain Y2HGold; bait in pbridge (BD), prey in pGADT7 (AD); growth on SD/-Trp-Leu and SD/-Trp-Leu-His dropout plates.

The target in assay [2] is T2, OsWRKY76-nYFP (rice (Oryza sativa)) (UniProt Q6EPZ2).
T2 sequence: T1 sequence
In words: split reporter; BiFC with nYFP and cYFP fusions transformed into Arabidopsis protoplasts (the results say rice protoplasts); fluorescence microscopy.

B1: AD-OsJAZ8 (protein, UniProt Q69P94 1-232)
chain: MAGRATATATAAGKDRSSFAVTCSLLSQFLKEKKGGGGGLQGLGLGLRPAPAAPPAAGAGGAFRPPPTTMNLLSGLDAPAVEVEPNTAETAADELPLIKAPADQQSDESASEAAGEKAQQLTIFYGGKVVVFENFPSTKVKDLLQIVSTGDGVDKNTGTAATQSLPRPAHNSLPDLPIARRNSLHRFLEKRKGRMNANAPYQANCTAAPSKQANGDKSWLGFGQEMTIKQEI
With B1, the binding entry in assay [1] was “binds”.

B2: AD-OsJAZ12 (protein, UniProt Q7XEZ1 1-171)
chain: MAAAGSSSRFAVTCGLLSQYMRERQQPQPPVTVLEAVAEEEEEEDARTMQLFPPRAAAADGVATPSAGTAPLTIFYDGRMVVVDDVPVEKAAELMRLAGSACSPPQPAHAAALPEMPIARKASLQRFLQKRKHRITTTSEPYKKAAVASPAPEKSFAVAPVKDEPATWLGL
In the case of B2, the binding result in assay [1] is listed as “binds”.

B3: cYFP-OsJAZ12 (protein, UniProt Q7XEZ1 1-171)
chain: B2 chain
In the case of B3, the binding result in assay [2] is “binds”.

B4: AD-OsJAZ7 (protein, UniProt Q8H395 1-244)
chain: MAASARPVGVGGERATSFAMACSLLSRYVRQNGAAAAELGLGIRGEGEAPRAAPATMSLLPGEAERKKETMELFPQSAGFGQQDAITADSAADAREQEPEKRQLTIFYGGKVLVFNDFPADKAKGLMQLASKGSPVAPQNAAAPAPAAVTDNTKAPMAVPAPVSSLPTAQADAQKPARANASDMPIARKASLHRFLEKRKDRLNAKTPYQASPSDATPVKKEPESQPWLGLGPNAVVKPIERGQ
Consider B4, for which, in assay [1], the binding entry is reported as “no binding”.

These data come from paper PMC10113545, “OsWRKY76 positively regulates drought stress via OsbHLH148-mediated jasmonate signaling in rice”.
